Laboratory results taken from US20070196883A1, “ENZYME” (UNIVERSITY OF DUNDEE, priority 1999, published 2007).
Where a chain is given by its changes, count along the chain named. Results are given in words; binding and its absence hold for the method and conditions named. For some assays here: Binding seen in cells or lysates may run through a third protein. Some results given as binding are weak or reduced against the parent protein; the word gives no strength. For some assays here: Where a sequence is shown, tags or fusion partners need not be part of it.

Amino acid sequences for entries named in this document (tags omitted). A change or cut given only in a name is not applied to a line headed by its entry.
UniProt Q16513: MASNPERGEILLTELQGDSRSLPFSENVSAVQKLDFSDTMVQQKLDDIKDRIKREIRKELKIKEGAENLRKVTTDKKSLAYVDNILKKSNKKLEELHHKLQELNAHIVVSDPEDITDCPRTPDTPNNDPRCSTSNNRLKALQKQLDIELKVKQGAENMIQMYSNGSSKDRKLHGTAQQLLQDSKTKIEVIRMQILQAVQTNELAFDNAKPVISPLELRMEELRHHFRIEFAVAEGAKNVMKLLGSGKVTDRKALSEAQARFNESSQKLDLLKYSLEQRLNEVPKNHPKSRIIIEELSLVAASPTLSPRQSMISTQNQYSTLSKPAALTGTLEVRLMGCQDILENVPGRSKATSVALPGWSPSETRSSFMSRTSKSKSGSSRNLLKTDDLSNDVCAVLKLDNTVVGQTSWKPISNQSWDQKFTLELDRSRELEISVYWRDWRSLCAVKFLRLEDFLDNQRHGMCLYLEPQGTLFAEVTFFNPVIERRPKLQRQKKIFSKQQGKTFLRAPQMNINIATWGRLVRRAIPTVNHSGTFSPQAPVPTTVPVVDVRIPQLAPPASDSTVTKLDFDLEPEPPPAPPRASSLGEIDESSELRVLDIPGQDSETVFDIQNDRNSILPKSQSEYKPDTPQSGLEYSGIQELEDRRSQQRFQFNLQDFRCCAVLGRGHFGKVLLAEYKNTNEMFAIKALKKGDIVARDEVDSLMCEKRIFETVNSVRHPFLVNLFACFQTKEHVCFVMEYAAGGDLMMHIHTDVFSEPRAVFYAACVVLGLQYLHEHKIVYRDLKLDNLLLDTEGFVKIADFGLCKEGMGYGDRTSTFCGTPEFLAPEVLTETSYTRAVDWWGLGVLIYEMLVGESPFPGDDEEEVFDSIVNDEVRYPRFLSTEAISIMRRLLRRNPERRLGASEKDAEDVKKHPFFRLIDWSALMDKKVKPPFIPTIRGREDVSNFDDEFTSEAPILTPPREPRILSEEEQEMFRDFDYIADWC

Key:
[1] = target: T1, wild type Myc-PDK1 (Myc epitope-tagged PDK1) (human) (UniProt O15530); assay: co-expression in 293 cells, pull-down
T1 sequence: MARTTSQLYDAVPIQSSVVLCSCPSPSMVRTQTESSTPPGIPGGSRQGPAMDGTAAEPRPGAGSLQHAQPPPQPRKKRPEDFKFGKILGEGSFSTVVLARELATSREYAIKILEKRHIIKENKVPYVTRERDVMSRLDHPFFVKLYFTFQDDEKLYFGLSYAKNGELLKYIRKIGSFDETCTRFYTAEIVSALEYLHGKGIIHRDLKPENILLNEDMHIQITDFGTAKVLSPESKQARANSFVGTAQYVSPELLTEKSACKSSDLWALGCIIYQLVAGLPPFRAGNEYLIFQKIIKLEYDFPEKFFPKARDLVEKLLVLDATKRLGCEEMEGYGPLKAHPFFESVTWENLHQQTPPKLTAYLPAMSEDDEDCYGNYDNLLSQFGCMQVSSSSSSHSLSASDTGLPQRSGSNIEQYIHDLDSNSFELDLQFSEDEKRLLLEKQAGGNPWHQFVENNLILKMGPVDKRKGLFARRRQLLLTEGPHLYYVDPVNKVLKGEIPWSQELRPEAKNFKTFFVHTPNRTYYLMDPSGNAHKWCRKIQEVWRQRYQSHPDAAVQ

[2] = target: T2, kinase dead Myc-PDK1 (K111A, D223A) (human) (UniProt O15530); assay: co-expression in 293 cells, glutathione-Sepharose pull-down and Myc immunoprecipitation, Coomassie gel
T2 sequence: T1 sequence with K111A, D223A

[3] = target: T3, kinase domain of Myc-PDK1 (residues 51 to 404) (human) (UniProt O15530); assay: as above
T3 sequence: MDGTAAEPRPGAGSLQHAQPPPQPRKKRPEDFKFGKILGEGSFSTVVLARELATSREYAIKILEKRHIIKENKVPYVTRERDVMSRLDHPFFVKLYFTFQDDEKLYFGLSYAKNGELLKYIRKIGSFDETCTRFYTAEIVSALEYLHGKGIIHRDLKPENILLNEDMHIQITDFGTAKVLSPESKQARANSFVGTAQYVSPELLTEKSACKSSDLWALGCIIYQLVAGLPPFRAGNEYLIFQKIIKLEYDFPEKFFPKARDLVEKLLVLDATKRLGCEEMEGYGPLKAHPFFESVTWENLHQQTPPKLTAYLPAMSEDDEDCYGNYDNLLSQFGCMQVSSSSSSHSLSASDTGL

[4] = target: T1, wild type Myc-PDK1 (Myc epitope-tagged PDK1) (human); assay: as above
[5] = target: T4, kinase domain of PDK1 in pAS2-1 (yeast two-hybrid) (human) (UniProt O15530); assay: yeast two-hybrid
T4 sequence: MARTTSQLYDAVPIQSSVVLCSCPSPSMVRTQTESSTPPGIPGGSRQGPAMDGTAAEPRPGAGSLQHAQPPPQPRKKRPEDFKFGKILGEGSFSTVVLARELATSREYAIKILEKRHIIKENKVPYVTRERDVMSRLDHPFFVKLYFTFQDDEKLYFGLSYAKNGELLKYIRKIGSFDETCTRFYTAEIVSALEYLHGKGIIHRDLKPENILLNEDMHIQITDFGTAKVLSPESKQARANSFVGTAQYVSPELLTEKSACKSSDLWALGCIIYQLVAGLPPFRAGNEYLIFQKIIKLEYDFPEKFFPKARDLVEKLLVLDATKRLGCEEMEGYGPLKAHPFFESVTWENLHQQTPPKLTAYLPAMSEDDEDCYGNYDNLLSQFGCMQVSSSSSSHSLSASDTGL

Row | binding [1] | binding [2] | binding [3] | binding [4] | binding [5] | Substance
1 | binds | binds | binds | binds |  | GST-PIF (glutathione-S-transferase fusion of the C-terminal 77 amino acids of PRK2) (from UniProt Q16513 908-984)
2 |  |  |  |  | binds | PDK1-Interacting Fragment (PIF), C-terminal 77 amino acids of PRK2, expressed from pGAD10 in yeast (from UniProt Q16513 908-984)
